Where two headings read alike, the source gives them in different places. Results are given in words; binding and its absence hold for the method and conditions named. In cells and extracts the contact can be indirect. Some results given as binding are weak or reduced against the parent protein; the word gives no strength. Tags and fused reporters may be left off the sequences shown. Blank lines part the entries; values can stand above or below the molecule they belong to.
Columns and labels:
Test in all cases: co-IP
[1] = target: T1, NRROS^nFlag overexpressed in HEK293T cells (mouse) (UniProt Q8BMT4)
T1 sequence: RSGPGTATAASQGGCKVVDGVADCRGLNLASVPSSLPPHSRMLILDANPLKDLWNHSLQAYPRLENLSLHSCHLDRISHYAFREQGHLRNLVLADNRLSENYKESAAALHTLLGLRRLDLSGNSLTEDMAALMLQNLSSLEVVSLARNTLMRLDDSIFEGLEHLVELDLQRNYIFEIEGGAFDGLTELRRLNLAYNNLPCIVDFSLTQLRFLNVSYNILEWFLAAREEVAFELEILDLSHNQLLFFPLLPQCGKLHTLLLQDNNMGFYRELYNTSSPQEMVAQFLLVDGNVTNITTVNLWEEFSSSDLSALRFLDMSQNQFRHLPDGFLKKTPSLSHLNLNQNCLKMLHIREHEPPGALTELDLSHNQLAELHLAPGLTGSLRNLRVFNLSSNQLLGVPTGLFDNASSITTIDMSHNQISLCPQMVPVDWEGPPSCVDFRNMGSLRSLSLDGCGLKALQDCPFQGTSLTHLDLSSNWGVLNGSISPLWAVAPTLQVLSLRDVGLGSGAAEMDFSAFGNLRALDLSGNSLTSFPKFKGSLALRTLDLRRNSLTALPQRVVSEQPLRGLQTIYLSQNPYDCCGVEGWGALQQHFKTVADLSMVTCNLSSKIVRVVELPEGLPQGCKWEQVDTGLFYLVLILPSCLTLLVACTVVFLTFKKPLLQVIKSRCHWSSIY

Sequences of proteins named here, by UniProt entry; tags and fusion partners are left off. Residues count along the entry.
UniProt Q9NYU2, residues 43-1555: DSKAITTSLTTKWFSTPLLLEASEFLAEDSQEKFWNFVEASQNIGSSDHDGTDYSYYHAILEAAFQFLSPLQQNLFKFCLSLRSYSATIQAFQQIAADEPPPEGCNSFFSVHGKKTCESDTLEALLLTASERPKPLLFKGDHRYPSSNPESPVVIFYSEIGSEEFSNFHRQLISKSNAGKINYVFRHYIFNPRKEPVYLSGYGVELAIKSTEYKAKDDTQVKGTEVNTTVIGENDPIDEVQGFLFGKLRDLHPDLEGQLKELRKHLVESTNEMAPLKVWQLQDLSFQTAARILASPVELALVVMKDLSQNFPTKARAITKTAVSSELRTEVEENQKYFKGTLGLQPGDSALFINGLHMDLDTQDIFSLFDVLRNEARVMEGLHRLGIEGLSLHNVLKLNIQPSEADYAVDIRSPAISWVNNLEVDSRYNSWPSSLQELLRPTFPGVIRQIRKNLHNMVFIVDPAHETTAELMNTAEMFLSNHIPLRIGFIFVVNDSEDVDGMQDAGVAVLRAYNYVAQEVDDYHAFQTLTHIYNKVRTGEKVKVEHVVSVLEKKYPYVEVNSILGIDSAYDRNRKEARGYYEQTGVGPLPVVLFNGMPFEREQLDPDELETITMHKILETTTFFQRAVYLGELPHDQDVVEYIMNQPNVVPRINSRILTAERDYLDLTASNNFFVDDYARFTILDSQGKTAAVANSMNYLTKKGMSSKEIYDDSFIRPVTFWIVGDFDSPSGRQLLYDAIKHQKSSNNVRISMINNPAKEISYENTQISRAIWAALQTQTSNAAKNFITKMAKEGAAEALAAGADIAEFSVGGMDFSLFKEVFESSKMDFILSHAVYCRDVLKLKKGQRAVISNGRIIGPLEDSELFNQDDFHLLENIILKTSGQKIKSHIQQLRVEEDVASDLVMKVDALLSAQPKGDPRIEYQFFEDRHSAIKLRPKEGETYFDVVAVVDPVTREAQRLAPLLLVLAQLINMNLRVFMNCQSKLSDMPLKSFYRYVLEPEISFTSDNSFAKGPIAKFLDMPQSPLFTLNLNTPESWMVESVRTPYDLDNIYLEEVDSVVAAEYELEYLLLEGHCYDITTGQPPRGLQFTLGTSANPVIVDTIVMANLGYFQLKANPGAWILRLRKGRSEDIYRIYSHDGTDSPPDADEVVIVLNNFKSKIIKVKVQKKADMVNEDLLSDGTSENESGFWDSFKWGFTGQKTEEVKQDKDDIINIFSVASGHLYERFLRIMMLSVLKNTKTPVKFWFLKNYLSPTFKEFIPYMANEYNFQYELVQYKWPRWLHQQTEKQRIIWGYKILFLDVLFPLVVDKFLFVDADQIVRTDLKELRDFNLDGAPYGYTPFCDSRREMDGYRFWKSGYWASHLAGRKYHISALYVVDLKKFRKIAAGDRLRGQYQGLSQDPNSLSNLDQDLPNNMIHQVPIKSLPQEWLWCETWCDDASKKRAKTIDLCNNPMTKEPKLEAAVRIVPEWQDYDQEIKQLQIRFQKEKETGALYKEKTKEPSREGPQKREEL
UniProt P11021, residues 19-654: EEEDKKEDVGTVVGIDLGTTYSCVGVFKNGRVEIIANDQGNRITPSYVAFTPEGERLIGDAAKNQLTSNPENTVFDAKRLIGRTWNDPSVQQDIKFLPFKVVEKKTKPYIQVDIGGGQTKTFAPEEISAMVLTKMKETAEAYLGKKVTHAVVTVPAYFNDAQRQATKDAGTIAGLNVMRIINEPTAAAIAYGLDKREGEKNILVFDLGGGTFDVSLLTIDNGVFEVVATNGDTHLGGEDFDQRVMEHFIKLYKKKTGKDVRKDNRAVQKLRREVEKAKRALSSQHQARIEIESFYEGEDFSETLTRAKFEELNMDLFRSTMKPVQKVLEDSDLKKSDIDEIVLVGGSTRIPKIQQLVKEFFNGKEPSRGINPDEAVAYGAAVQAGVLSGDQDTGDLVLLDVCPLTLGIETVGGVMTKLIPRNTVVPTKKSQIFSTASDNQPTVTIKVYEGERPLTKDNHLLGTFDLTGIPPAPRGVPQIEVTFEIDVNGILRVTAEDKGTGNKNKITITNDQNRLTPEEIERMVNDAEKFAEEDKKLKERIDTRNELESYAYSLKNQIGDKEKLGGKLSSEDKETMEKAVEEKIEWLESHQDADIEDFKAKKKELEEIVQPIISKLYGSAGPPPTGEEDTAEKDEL
UniProt P04202, residues 30-390: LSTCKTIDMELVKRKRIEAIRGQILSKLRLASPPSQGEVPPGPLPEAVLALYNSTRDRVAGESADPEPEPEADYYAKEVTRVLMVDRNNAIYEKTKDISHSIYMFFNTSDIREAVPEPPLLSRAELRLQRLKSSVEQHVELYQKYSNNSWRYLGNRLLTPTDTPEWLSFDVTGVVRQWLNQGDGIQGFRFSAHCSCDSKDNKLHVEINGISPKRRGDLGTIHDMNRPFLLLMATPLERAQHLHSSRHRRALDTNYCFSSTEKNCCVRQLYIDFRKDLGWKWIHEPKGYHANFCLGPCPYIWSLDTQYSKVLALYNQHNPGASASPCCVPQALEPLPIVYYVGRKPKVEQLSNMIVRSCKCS
UniProt Q9UNE7: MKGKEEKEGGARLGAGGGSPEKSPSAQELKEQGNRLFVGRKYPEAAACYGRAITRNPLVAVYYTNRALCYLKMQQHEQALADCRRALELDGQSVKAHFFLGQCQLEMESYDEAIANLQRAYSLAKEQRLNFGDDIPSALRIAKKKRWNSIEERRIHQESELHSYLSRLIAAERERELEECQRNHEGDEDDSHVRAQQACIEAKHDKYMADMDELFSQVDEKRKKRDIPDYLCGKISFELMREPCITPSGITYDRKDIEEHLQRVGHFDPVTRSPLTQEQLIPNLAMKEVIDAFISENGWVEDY

[2] = target: T1, NRROS^nFlag overexpressed in HEK293T cells (mouse); remark: listed apart in the source
[3] = target: T1, NRROS^nFlag overexpressed in HEK293T cells (mouse); remark: listed apart in the source
[4] = target: T2, NRROS^LAP (C-terminus LAP-tagged NRROS), stable in RAW 264.7 cells (mouse) (UniProt Q8BMT4)
T2 sequence: T1 sequence

Molecule: UGGT1 (HEK293T) (from UniProt Q9NYU2 43-1555)
binding [1]: binds

Molecule: Bip (HEK293T) (from UniProt P11021 19-654)
binding [1]: binds

Molecule: TGFβ1^HA (mouse TGFβ1 with HA tag at the C-terminus) (from UniProt P04202 30-390)
binding [1]: binds

B1: calnexin (HEK293T) (protein, UniProt P27824 21-592)
chain: HDGHDDDVIDIEDDLDDVIEEVEDSKPDTTAPPSSPKVTYKAPVPTGEVYFADSFDRGTLSGWILSKAKKDDTDDEIAKYDGKWEVEEMKESKLPGDKGLVLMSRAKHHAISAKLNKPFLFDTKPLIVQYEVNFQNGIECGGAYVKLLSKTPELNLDQFHDKTPYTIMFGPDKCGEDYKLHFIFRHKNPKTGIYEEKHAKRPDADLKTYFTDKKTHLYTLILNPDNSFEILVDQSVVNSGNLLNDMTPPVNPSREIEDPEDRKPEDWDERPKIPDPEAVKPDDWDEDAPAKIPDEEATKPEGWLDDEPEYVPDPDAEKPEDWDEDMDGEWEAPQIANPRCESAPGCGVWQRPVIDNPNYKGKWKPPMIDNPSYQGIWKPRKIPNPDFFEDLEPFRMTPFSAIGLELWSMTSDIFFDNFIICADRRIVDDWANDGWGLKKAADGAAEPGVVGQMIEAAEERPWLWVVYILTVALPVFLVILFCCSGKKQTSGMEYKKTDAPQPDVKEEEEEKEEEKDKGDEEEEGEEKLEEKQKSDAEEDGGTVSQEEEDRKPKAEEDEILNRSPRNRKPRRE
binding [2]: binds
binding [3]: binds

B2: calnexin (endogenous, RAW 264.7) (protein, UniProt P35564 21-591)
chain: HDGHDDDAIDIEDDLDDVIEEVEDSKSKSDASTPPSPKVTYKAPVPTGEVYFADSFDRGSLSGWILSKAKKDDTDDEIAKYDGKWEVDEMKETKLPGDKGLVLMSRAKHHAISAKLNKPFLFDTKPLIVQYEVNFQNGIECGGAYVKLLSKTAELSLDQFHDKTPYTIMFGPDKCGEDYKLHFIFRHKNPKTGVYEEKHAKRPDADLKTYFTDKKTHLYTLILNPDNSFEILVDQSVVNSGNLLNDMTPPVNPSREIEDPEDRKPEDWDERPKIADPDAVKPDDWDEDAPSKIPDEEATKPEGWLDDEPEYIPDPDAEKPEDWDEDMDGEWEAPQIANPKCESAPGCGVWQRPMIDNPNYKGKWKPPMIDNPNYQGIWKPRKIPNPDFFEDLEPFKMTPFSAIGLELWSMTSDIFFDNFIISGDRRVVDDWANDGWGLKKAADGAAEPGVVLQMLEAAEERPWLWVVYILTVALPVFLVILFCCSGKKQSNAMEYKKTDAPQPDVKDEEGKEEEKNKRDEEEEEEKLEEKQKSDAEEDGVTGSQDEEDSKPKAEEDEILNRSPRNRKPRRE
binding [4]: binds

Continued, values first:

binding [1]: no binding
Molecule: CHIP (HEK293T) (from UniProt Q9UNE7 1-303)

binding [2]: binds
B3: EDEM1 (ER degradation-enhancing alpha-mannosidase-like protein 1) in HEK293T cells (protein, UniProt Q92611 1-657)
chain: MQWRALVLGLVLLRLGLHGVLWLVFGLGPSMGFYQRFPLSFGFQRLRSPDGPASPTSGPVGRPGGVSGPSWLQPPGTGAAQSPRKAPRRPGPGMCGPANWGYVLGGRGRGPDEYEKRYSGAFPPQLRAQMRDLARGMFVFGYDNYMAHAFPQDELNPIHCRGRGPDRGDPSNLNINDVLGNYSLTLVDALDTLAIMGNSSEFQKAVKLVINTVSFDKDSTVQVFEATIRVLGSLLSAHRIITDSKQPFGDMTIKDYDNELLYMAHDLAVRLLPAFENTKTGIPYPRVNLKTGVPPDTNNETCTAGAGSLLVEFGILSRLLGDSTFEWVARRAVKALWNLRSNDTGLLGNVVNIQTGHWVGKQSGLGAGLDSFYEYLLKSYILFGEKEDLEMFNAAYQSIQNYLRRGREACNEGEGDPPLYVNVNMFSGQLMNTWIDSLQAFFPGLQVLIGDVEDAICLHAFYYAIWKRYGALPERYNWQLQAPDVLFYPLRPELVESTYLLYQATKNPFYLHVGMDILQSLEKYTKVKCGYATLHHVIDKSTEDRMESFFLSETCKYLYLLFDEDNPVHKSGTRYMFTTEGHIVSVDEHLRELPWKEFFSEEGGQDQGGKSVHRPKPHELKVINSSSNCNRVPDERRYSLPLKSIYMRQIDQMVGLI

binding [3]: binds
B4: NOX2 (gp91^phox) overexpressed in HEK293T cells (protein, UniProt Q61093 1-570)
chain: MGNWAVNEGLSIFVILVWLGLNVFLFINYYKVYDDGPKYNYTRKLLGSALALARAPAACLNFNCMLILLPVCRNLLSFLRGSSACCSTRIRRQLDRNLTFHKMVAWMIALHTAIHTIAHLFNVEWCVNARVGISDRYSIALSDIGDNENEEYLNFAREKIKNPEGGLYVAVTRLAGITGIVITLCLILIITSSTKTIRRSYFEVFWYTHHLFVIFFIGLAIHGAERIVRGQTAESLEEHNLDICADKIEEWGKIKECPVPKFAGNPPMTWKWIVGPMFLYLCERLVRFWRSQQKVVITKVVTHPFKTIELQMKKKGFKMEVGQYIFVKCPKVSKLEWHPFTLTSAPEEDFFSIHIRIVGDWTEGLFNACGCDKQEFQDAWKLPKIAVDGPFGTASEDVFSYEVVMLVGAGIGVTPFASILKSVWYKYCDNATSLKLKKIYFYWLCRDTHAFEWFADLLQLLETQMQERNNANFLSYNIYLTGWDESQANHFAVHHDEEKDVITGLKQKTLYGRPNWDNEFKTIASEHPNTTIGVFLCGPEALAETLSKQSISNSESGPRGVHFIFNKENF

From paper doi:10.1101/326512
